These are yes or no findings as the source states them, for the method shown. For some of these results: Binding seen in cells or lysates may run through a third protein. Some entries that bind do so weakly or less than the wild type. For some of these results: Tags and fused reporters may be left off the sequences shown.

Sequences of proteins named here, by UniProt entry; tags and fusion partners are left off.
UniProt P31751: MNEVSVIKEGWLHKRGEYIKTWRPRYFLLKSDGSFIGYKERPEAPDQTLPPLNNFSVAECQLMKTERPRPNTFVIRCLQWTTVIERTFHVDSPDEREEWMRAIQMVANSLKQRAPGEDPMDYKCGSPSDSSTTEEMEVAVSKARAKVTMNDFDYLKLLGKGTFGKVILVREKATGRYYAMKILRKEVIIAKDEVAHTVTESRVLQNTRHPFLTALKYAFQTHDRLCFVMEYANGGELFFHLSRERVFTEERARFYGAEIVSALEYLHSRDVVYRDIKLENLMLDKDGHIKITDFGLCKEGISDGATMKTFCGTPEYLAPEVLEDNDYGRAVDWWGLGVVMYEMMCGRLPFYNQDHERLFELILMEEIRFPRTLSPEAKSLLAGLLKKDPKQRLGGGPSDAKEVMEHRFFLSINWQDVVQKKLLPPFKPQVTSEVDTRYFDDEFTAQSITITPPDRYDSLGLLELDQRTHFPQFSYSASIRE
UniProt P31749: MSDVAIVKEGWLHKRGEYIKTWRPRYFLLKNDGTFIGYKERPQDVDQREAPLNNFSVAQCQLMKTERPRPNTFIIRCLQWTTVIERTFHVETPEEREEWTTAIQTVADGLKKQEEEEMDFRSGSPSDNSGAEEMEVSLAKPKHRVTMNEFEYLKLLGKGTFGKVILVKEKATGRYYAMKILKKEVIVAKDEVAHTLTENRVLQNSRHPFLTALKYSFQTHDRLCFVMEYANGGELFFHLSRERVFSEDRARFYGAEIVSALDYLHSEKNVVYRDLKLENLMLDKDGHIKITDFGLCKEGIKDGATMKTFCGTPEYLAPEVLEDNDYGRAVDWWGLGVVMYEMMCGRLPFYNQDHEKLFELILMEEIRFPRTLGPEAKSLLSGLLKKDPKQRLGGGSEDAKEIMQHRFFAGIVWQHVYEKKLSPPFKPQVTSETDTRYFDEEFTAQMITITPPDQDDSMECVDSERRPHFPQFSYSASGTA
UniProt Q9Y243: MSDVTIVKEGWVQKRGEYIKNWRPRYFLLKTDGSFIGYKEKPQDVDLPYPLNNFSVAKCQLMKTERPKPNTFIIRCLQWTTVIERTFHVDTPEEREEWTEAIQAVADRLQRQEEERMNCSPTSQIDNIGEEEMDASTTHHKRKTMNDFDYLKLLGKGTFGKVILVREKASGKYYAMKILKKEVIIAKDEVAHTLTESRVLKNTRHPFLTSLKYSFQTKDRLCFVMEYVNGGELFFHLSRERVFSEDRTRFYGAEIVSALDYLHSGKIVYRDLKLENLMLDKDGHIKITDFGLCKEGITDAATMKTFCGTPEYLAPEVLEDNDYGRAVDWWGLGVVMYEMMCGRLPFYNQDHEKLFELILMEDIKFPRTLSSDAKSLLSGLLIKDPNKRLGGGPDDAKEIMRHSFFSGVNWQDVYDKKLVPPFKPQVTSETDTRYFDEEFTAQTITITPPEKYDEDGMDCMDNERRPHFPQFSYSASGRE

The target in test [1] is T1, Endogenous Phafin2 (HT1080 cells) (human (endogenous in HT1080)) (UniProt Q9H8W4).
T1 sequence: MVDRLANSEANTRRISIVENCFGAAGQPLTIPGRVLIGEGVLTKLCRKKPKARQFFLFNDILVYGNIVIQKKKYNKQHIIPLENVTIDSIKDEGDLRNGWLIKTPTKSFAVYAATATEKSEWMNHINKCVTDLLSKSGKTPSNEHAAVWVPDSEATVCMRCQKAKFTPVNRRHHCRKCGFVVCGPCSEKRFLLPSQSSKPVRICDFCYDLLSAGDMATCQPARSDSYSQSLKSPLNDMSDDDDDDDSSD
The experiment in a line: co-IP; endogenous proteins in HT1080 cells, co-immunoprecipitation and immunoblot. In general terms: Immunoblotting shows a protein as a band on a membrane.

Test [2] concerns the target T2, Venus fused Phafin2 (pCXN2-Venus-Phafin2) (human) (UniProt Q9H8W4).
T2 sequence: T1 sequence
The experiment in a line: FRET or BRET; FRET in HeLa cells transfected with pCXN2-ECFP-Akt2 and pCXN2-Venus-Phafin2; non-treated, 10 µM rapamycin or HBSS. A general note: BRET reads energy transfer from a luciferase to a nearby fluorophore.

Test [3] concerns the target T3, Flag-tagged Phafin2 (human) (UniProt Q9H8W4).
T3 sequence: T1 sequence
The experiment in a line: co-IP; 293T cells co-transfected with the indicated plasmids, 72 h, Brij97 lysis buffer, immunoprecipitated with anti-HA or anti-Flag antibody with mouse IgG as a control, immunoblot.

Test [4] concerns the target T4, GST-wild type Phafin2 recombinant protein (human) (UniProt Q9H8W4).
T4 sequence: T1 sequence
The experiment in a line: pull-down; GST pull-down: recombinant active or unactive Akt1 incubated with GST-Phafin2 beads in 1% Triton buffer, 50 mM Tris HCl (pH 7.5), 150 mM NaCl, 5 min at 4°C; immunoblot with anti-Akt antibody; both purified.

Test [5] addresses T5, N-terminal Venus fused Phafin2 (pCAGGS-VN-Phafin2) (human) (UniProt Q9H8W4).
T5 sequence: T1 sequence
Put plainly: split reporter; BiFC in HeLa cells transfected with pCAGGS-VN-Phafin2 and pCAGGS-VC-Akt2; normal condition, rapamycin or HBSS; fixed, confocal microscopy.

Test [6] addresses human Akt2 bait (human Akt2/pAS2-1) (human) (UniProt P31751). Put plainly: two-hybrid; yeast two-hybrid screen, Y190 cells transformed with the bait plasmid human Akt2/pAS2-1; β-gal positive clones.

With “Endogenous Akt1 (HT1080 cells) (from UniProt P31749 1-480) (enzyme)”, in test [1], the binding entry is on record as “binds”.

As for “ECFP fused Akt2 (pCXN2-ECFP-Akt2) (from UniProt P31751 1-481) (enzyme)”, in test [2], the binding result was “binds”. Consider “HA-tagged Akt1 (from UniProt P31749 1-480) (enzyme)”, for which the binding result in test [3] is reported as “binds”. Consider “HA-tagged Akt3 (from UniProt Q9Y243 1-479) (enzyme)”, for which the binding result in test [3] was “no binding”. As for “Endogenous Akt2 (HT1080 cells) (from UniProt P31751 1-481) (enzyme)”, in test [1], the binding entry was “binds”. Consider “HA-tagged Akt2 (from UniProt P31751 1-481) (enzyme)”, for which the binding entry in test [3] is “binds”. On to “Recombinant "unactive" Akt1/PKBα (from UniProt P31749 1-480) (enzyme)”, for which, in test [4], the binding result is given as “binds”.

For “C-terminal Venus fused to Akt2 (pCAGGS-VC-AKT2) (from UniProt P31751 1-481) (enzyme)”, in test [5], the binding entry is “binds”.

B1: HA-PDK1 (enzyme, UniProt O15530 1-556)
chain: MARTTSQLYDAVPIQSSVVLCSCPSPSMVRTQTESSTPPGIPGGSRQGPAMDGTAAEPRPGAGSLQHAQPPPQPRKKRPEDFKFGKILGEGSFSTVVLARELATSREYAIKILEKRHIIKENKVPYVTRERDVMSRLDHPFFVKLYFTFQDDEKLYFGLSYAKNGELLKYIRKIGSFDETCTRFYTAEIVSALEYLHGKGIIHRDLKPENILLNEDMHIQITDFGTAKVLSPESKQARANSFVGTAQYVSPELLTEKSACKSSDLWALGCIIYQLVAGLPPFRAGNEYLIFQKIIKLEYDFPEKFFPKARDLVEKLLVLDATKRLGCEEMEGYGPLKAHPFFESVTWENLHQQTPPKLTAYLPAMSEDDEDCYGNYDNLLSQFGCMQVSSSSSSHSLSASDTGLPQRSGSNIEQYIHDLDSNSFELDLQFSEDEKRLLLEKQAGGNPWHQFVENNLILKMGPVDKRKGLFARRRQLLLTEGPHLYYVDPVNKVLKGEIPWSQELRPEAKNFKTFFVHTPNRTYYLMDPSGNAHKWCRKIQEVWRQRYQSHPDAAVQ
B1: in test [3], the binding entry is “no binding”.

B2: Phafin2 (yeast two-hybrid clone, full length cDNA of human Phafin2) (protein, UniProt Q9H8W4 1-249)
chain: T1 sequence
In the case of B2, in test [6], the binding result is listed as “binds”.

(Values after article PMC3885392.)
